The results in this text go back to publication PMC9629621.

Protein sequences, listed by entry. Tags and fused reporters are not part of them.
UniProt P10591: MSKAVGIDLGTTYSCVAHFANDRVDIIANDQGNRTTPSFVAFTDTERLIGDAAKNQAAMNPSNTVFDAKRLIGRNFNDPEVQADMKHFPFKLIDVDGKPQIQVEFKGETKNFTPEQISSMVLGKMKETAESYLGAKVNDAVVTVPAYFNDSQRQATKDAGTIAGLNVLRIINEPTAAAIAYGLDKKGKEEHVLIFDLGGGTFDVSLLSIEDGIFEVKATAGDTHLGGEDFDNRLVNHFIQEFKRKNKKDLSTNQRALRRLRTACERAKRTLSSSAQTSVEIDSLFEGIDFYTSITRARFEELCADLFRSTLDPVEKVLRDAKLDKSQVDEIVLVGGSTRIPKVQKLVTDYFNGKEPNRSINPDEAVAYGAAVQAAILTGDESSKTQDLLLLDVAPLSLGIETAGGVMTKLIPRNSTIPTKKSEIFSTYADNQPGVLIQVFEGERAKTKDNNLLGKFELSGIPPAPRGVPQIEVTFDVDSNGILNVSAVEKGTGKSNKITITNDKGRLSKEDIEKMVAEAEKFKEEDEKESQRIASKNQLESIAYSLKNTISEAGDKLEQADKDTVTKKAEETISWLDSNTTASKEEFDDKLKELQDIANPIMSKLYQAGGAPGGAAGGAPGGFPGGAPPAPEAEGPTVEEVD

No constants are given. Whether binding was seen depends on the method and setting. Binding seen in cells or lysates may run through a third protein. Some binding calls cover weakened binding; strength is not graded here. Where a sequence is shown, tags or fusion partners need not be part of it.

This assay has as its target T1, Pim1-GFP (wild type) (S. cerevisiae) (UniProt P36775).
T1 sequence: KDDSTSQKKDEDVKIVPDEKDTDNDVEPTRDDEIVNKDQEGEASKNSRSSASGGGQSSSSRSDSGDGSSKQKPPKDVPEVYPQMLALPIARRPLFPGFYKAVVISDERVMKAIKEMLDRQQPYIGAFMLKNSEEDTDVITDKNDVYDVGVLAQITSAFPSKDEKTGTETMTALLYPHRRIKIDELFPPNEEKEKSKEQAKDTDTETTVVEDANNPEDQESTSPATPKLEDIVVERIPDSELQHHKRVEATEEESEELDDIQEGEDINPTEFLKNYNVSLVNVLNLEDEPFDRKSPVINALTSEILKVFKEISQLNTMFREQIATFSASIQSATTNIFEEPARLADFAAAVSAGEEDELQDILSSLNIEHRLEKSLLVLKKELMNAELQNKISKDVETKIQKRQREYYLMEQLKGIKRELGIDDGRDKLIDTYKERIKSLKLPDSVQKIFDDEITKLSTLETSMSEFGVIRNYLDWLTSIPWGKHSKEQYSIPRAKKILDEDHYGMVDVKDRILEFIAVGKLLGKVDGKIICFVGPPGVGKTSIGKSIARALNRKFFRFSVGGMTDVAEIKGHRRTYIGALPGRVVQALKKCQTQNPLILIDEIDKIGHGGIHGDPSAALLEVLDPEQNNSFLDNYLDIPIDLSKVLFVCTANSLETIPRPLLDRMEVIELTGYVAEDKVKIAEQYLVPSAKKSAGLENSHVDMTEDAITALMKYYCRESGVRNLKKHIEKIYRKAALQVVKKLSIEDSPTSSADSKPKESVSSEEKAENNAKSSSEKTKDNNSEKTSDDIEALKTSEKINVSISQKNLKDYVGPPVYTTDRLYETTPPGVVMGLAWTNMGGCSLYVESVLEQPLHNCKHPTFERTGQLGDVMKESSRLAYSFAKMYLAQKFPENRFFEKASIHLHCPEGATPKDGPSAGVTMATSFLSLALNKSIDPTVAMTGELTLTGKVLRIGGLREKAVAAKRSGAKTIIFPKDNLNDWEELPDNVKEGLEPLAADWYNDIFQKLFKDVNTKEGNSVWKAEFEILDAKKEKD
Nature of the assay: co-IP; yeast extract (200 ug) on anti-GFP magnetic beads (GFP-TRAP), 4°C overnight; 50 mM Na-phosphate pH 8.0, 300 mM NaCl, 0.01% Tween-20; western blot. For orientation: Immunoblotting shows a protein as a band on a membrane.

In the case of “Ssa1 (endogenous, detected with anti-Ssa1) (from UniProt P10591 1-642)”, the binding entry is “binds”.
